Measurements as given in PubChem BioAssay AID2685 (National Center for Advancing Translational Sciences (NCATS), 2010).
The other results are listed elsewhere or left out. Further columns of the screen follow, without active or inactive calls. The list favours compounds with an active or inconclusive main result. The note in brackets gives the kind of curve behind each potency; many fits are weak.

Assay: qHTS Assay for Lipid Storage Modulators in Drosophila S3 Cells;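 as to cell number change: cells counted by Cell Tracker Red CMTPX staining in the red channel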
Details: BODIPY lipid droplet fluorescence, 18-24 h; for cell number change: measured here: cell count max response, cells fed with added oleic acid
How it was run: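 Drosophila S3 cells got compounds at several concentrations plus oleic acid (400 uM solution). Laser-scanning cytometry with 488 nm excitation read lipid droplets at 500-530 nm and cells at 575-640 nm. Percent activity was relative to 20 uM Triacsin C.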

[1] = measured here: cell number channel AC50, cells fed with added oleic acid
[2] = measured here: lipid fluorescence (Fed channel) AC50, cells fed with added oleic acid

Row | Compound | cell number change [%] | AC50 [1] | AC50 [2]
1 | CCOc1ccccc1N1CCN(C(=O)CN2C(=O)NC3(CCCC3)C2=O)CC1 | 13.3 | – | –
2 | N#C/C(=C/c1cn(-c2ccccc2)nc1-c1cccc(S(=O)(=O)N2CCOCC2)c1)C(=O)NCc1ccco1 | 50.1 | 13 µM [rising, partial curve, poor fit] | 6.51 µM [rising, single point]
3 | O=C(N=C1SC2CS(=O)(=O)CC2N1c1ccc(OC(F)(F)F)cc1)C1CC1 (stereo unspecified) | -21.2 | – | 29.1 µM [rising, single point]
4 | COC(=O)c1cc(-c2c(-c3ccc4c(c3)OCO4)noc2-c2ccsc2)cc([N+](=O)[O-])c1 | -0.324 | – | 29.1 µM [falling, single point]
5 | Cc1ccc(NC(=O)NC(=O)COc2ccccc2C(N)=O)c(C)c1 | 1.13 | – | 0.461 µM [falling, partial curve, poor fit]
6 | COC(=O)C1=C(C)N(C)C(C)=C(C(=O)OC)C1c1ccc(F)c(Br)c1 | – | – | 0.13 µM [rising, full curve, poor fit]
7 | Cc1sc(NC(=O)Cn2cnnn2)nc1-c1ccc(Cl)cc1 | -1.99 | – | –
8 | Cc1nc(C)c(C(=O)OC(C)C(=O)Nc2ccc(F)cc2)s1 (stereo unspecified) | 15.7 | – | –
9 | CCC(C)Nc1nnnc2c1sc1nc3c(cc12)COC(C)(C)C3 (stereo unspecified) | -50.2 | 14.6 µM [falling, single point] | –
10 | COc1ccccc1-c1c(C)nn2c(C)cc(C)nc12 | 57.4 | 29.1 µM [rising, single point] | –
11 | COC(=O)c1ccccc1NC(=O)N1c2ccccc2Sc2ccccc21 | -41.8 | 8.2 µM [falling, partial curve] | 0.82 µM [falling, full curve]
12 | O=C(NCc1ccncc1)C1CCCCC1 | -10.4 | – | –
13 | O=C(NN1CCOCC1)c1cc(-c2ccncc2)nc2ccccc12 | – | 0.164 µM [rising, full curve, poor fit] | –
14 | O=C(O)COc1ccc(/C=C/C(=O)c2ccc3ccccc3c2)cc1 | -2.86 | – | –
15 | CC(=O)Nc1ccc(C(=O)OCC(=O)NCCC2=CCCCC2)cc1 | -13.3 | – | 6.51 µM [falling, single point]
16 | CC(=O)C1=C(O)C(=O)N(c2ccc(S(N)(=O)=O)cc2)C1c1ccccc1F (stereo unspecified) | 25.4 | 0.164 µM [rising, full curve, poor fit] | –
17 | CCOc1ccc(CN(C)C(=O)CN2C(=O)NC3(CCCc4ccccc43)C2=O)cc1 (stereo unspecified) | -4.15 | – | 29.1 µM [rising, single point]
18 | COC(=O)c1sccc1NC(=O)CSc1ccccc1NS(=O)(=O)c1cc(Cl)ccc1Cl | 86.5 | – | 18.4 µM [rising, partial curve]
19 | CCC(C)N(C(=O)COC(=O)C1C(C(=O)OC)=C(C)NC(C)=C1C(=O)OC)C1CCS(=O)(=O)C1 (stereo unspecified) | 9.6 | 3.26 µM [falling, single point] | –
20 | Cc1ccc(NS(=O)(=O)c2ccc(CCC(=O)NC3CC3)cc2)cc1 | 50.3 | 5.17 µM [rising, partial curve, poor fit] | 0.461 µM [rising, partial curve]
21 | O=C(c1ccc([N+](=O)[O-])cc1)N(c1ccccn1)c1ccccn1 | -8.71 | – | –

Row | Compound | cell number change [%] | AC50 [1] | AC50 [2]
22 | COC(=O)c1cc(NC(=O)CC2C(=O)NCCN2C(=O)c2ccc(F)cc2)cc(C(=O)OC)c1 (stereo unspecified) | -0.0775 | – | 0.259 µM [rising, full curve, poor fit]
23 | Cc1ccc(NC(=O)C2(S(=O)(=O)c3ccc(Cl)cc3)CC2)c(Br)c1 | -16.2 | 2.06 µM [falling, single point] | –
24 | CCN(CC)CCNC(=O)c1ccc2c(=O)n(C3CCCC3)c(=S)[nH]c2c1 | -22.8 | – | 0.00517 µM [falling, full curve, poor fit]
25 | COc1cc(NC(=O)Cn2c(C)cc3ccccc3c2=O)cc(OC)c1OC | -8.37 | – | 1.3 µM [rising, partial curve]
26 | Cc1c(CN(C)C)c2c(n1Cc1ccccc1)C(=O)c1ccccc1-2 | 22.2 | – | –
27 | C/C(=N\NC(=S)NC1CCCCC1)c1cccc(C(F)(F)F)c1 | -1.85 | – | 0.231 µM [rising, full curve]
28 | CC1CN(c2ccc(C(=O)c3ccccc3C(=O)O)cc2[N+](=O)[O-])CC(C)O1 (stereo unspecified) | 36.6 | 25.9 µM [rising, single point] | –
29 | CCCN1C(=O)S/C(=C/c2ccc(N3CCOCC3)o2)C1=O | -60 | 18.4 µM [falling, single point] | 23.1 µM [falling, single point]
30 | O=C(COC(=O)c1ccco1)c1ccc(F)cc1 | -16.2 | – | –
31 | COc1ccc(C[C@H](N)C(=O)N[C@H]2[C@@H](O)[C@H](n3cnc4c(N(C)C)ncnc43)O[C@@H]2CO)cc1 | -14.4 | – | –
32 | O=C(NC(=S)Nc1ccccc1N1CCCC1)c1cccc(F)c1 | 9.92 | – | 1.84 µM [rising, partial curve]
33 | COc1cc(C(=O)NNC(=O)c2ccc(S(=O)(=O)N3CCCCC3)cc2)cc(OC)c1OC | -39.1 | 0.231 µM [falling, full curve, poor fit] | 0.259 µM [falling, partial curve]
34 | O=C(NNS(=O)(=O)c1ccc2ccccc2c1)c1cccs1 | 19.4 | – | 23.1 µM [rising, single point]
35 | CCSc1nnc(N)s1 | -12.6 | – | –
36 | O=C(c1ncn[nH]1)N1CCN(c2nc(-c3ccccc3)cs2)CC1 | -7.93 | – | 16.4 µM [rising, partial curve]
37 | COc1ccccc1Nc1ncnc2c1c(C)c(C)n2CCCN(C)C | -12.5 | – | –
38 | CCc1ccc(OCC(=O)OC(C)C(=O)Nc2ccc(Cl)cn2)cc1 (stereo unspecified) | -5.91 | – | 0.0291 µM [falling, full curve, poor fit]
39 | CCCn1c(SCC(=O)Nc2c(C)cccc2CC)nnc1C(C)C | 24.4 | – | 1.64 µM [rising, partial curve]
40 | O=C1NCC(O)=C1C=NC12CC3CC(CC(C3)C1)C2 | -10.7 | – | –
41 | CCN(CC)c1ccc(/C=C(\C#N)C(=O)NCc2ccccc2)cc1 | -22.3 | – | 29.1 µM [falling, single point]
42 | CC(C)Cc1nc(N2CCN(C(=O)c3ccccc3)CC2)c(C#N)c2c1CCC2 | -3.27 | – | 10.3 µM [falling, partial curve]

Structures listed so far with two or more sulfur atoms, in the order listed:
Row | Compound | cell number change [%] | AC50 [1] | AC50 [2]
3 | O=C(N=C1SC2CS(=O)(=O)CC2N1c1ccc(OC(F)(F)F)cc1)C1CC1 (stereo unspecified) | -21.2 | – | 29.1 µM [rising, single point]
18 | COC(=O)c1sccc1NC(=O)CSc1ccccc1NS(=O)(=O)c1cc(Cl)ccc1Cl | 86.5 | – | 18.4 µM [rising, partial curve]
34 | O=C(NNS(=O)(=O)c1ccc2ccccc2c1)c1cccs1 | 19.4 | – | 23.1 µM [rising, single point]
35 | CCSc1nnc(N)s1 | -12.6 | – | –

(continued)

Row | Compound | cell number change [%] | AC50 [1] | AC50 [2]
43 | O=C(Cc1ccccc1)Nc1ccc(NC(=O)c2cccs2)c(Cl)c1 | – | 0.103 µM [rising, full curve, poor fit] | 6.51 µM [rising, single point]
44 | Cc1cccc(N2CC(O)(c3cccs3)[N+]3=C2CCCC3)c1 (stereo unspecified) | -40.7 | 20.6 µM [falling, single point] | 29.1 µM [falling, single point]
45 | Cc1ccc(S(=O)(=O)N2CCC(c3nnc(SCCN4CCCC4)n3C)CC2)cc1 | 5.26 | – | –
46 | CCOc1cc(-c2nc(C)c(C(C)=O)n2O)ccc1OCC(=O)Nc1ccc(F)cc1 | -6.51 | – | –
47 | CC(C)(C)NC(=O)c1cccc(NC(=O)CSc2ccc(Cl)cc2)c1 | 18.1 | – | 1.84 µM [rising, single point]
48 | CCCCN1C(=O)C(=O)N(CC(=O)c2ccc3c(c2)CCCC3)C1=O | 9.14 | – | 3.66 µM [rising, full curve]
49 | CCOC(=O)c1ccccc1N1C(=O)CSC1=S | -0.811 | 0.00731 µM [falling, full curve, poor fit] | 6.51 µM [falling, single point]
50 | CCOc1ccc(S(=O)(=O)N(C)CC(=O)NCc2ccccn2)cc1Cl | 18.3 | – | 0.116 µM [falling, full curve, poor fit]
51 | Cn1c(=O)c2c(ncn2Cc2cccc(Cl)c2)n(C)c1=O | -2.87 | – | –
52 | O=C(CSc1nnc(C2CCCCC2)n1Cc1ccccc1)NCc1ccco1 | 42 | 11.6 µM [rising, partial curve, poor fit] | 6.51 µM [rising, single point]
53 | Cc1noc(NS(=O)(=O)c2ccc(NC(=O)c3ccc(OC(C)C)cc3)cc2)c1C | 0.239 | – | 4.11 µM [falling, single point]
54 | O=C(Nc1ccc(N2CCOCC2)c(C(=O)O)c1)c1ccco1 | -75.5 | 18.4 µM [falling, single point] | 29.1 µM [falling, single point]
55 | CC(=O)Oc1c(Br)cc(N(C(C)=O)S(=O)(=O)c2ccccc2)c2ccccc12 | -35.2 | 14.6 µM [falling, single point] | 18.4 µM [falling, partial curve]
56 | O=C(NCC1(c2ccccc2)CCCC1)c1ccccc1Br | – | – | 18.4 µM [rising, single point]
57 | COc1ccc(C(C#N)N2CCCCCC2)cc1OC (stereo unspecified) | -11.4 | – | 3.66 µM [rising, single point]
58 | Cc1ccc(S(=O)(=O)N/N=C/c2cc([N+](=O)[O-])ccc2O)cc1[N+](=O)[O-] | 19 | 0.00461 µM [rising, full curve, poor fit] | 3.66 µM [rising, partial curve, poor fit]
59 | Nc1nc2c(c(=O)[nH]1)CN(Cc1ccccc1)CC2 | 18 | – | 32.6 µM [rising, single point]
60 | COc1ccc(/C=C(\C#N)C(=O)N=CN(C)C)cc1 | -86.6 | 29.1 µM [falling, single point] | 29.1 µM [falling, single point]
61 | Cc1cc(O)cc2c1C(=O)/C(=C/c1ccco1)O2 | -13.3 | – | 0.0651 µM [falling, full curve, poor fit]
